Test [1] has as its system ReNCell VM. As to the kind of experiment: neuronal differentiation score (DCX+ cell fraction vs untreated, manual image score) (score (-3 to 3)); higher = more neuronal differentiation. The following applies: 2 uM, 2 weeks.
Test [2] concerns ReNCell VM. In words: dopaminergic neuron differentiation score (TH+ cell fraction vs untreated, manual image score) (score (0 to 3)); higher = more TH+ dopaminergic neuron differentiation. The following applies: 2 uM, 4 weeks, BDNF 10 ng/ml + GDNF 10 ng/ml.

Here are results for 10 compounds from the supplement of paper PMC4635364.

Counter-ions that a name gives are not always drawn. Some of the results follow. Repeats in this data set agree poorly, so a single value says little.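 Human fetal ventral-midbrain neural progenitor line ReNCell VM, differentiated without mitogens. Images stained for doublecortin (early neurons) or tyrosine hydroxylase (dopaminergic neurons) were scored by blinded raters against untreated wells (0 = no change). Repeats and both raters were averaged, and compounds averaging 2 or higher were picked as hits for retesting.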

With `CC(C)(C#N)O[C@@H]1O[C@H](CO)[C@@H](O)[C@H](O)[C@H]1O`, the neuronal differentiation score with ReNCell VM [1] (library: Spectrum) was inactive: 0. The “dopaminergic neuron differentiation score” value in the test on ReNCell VM [2] (library: Spectrum) was inactive: 0.

Regarding `CC(=O)O[C@@H]1C[C@H]2C(C)(C)C(=O)C=C[C@]2(C)[C@H]2CC[C@]3(C)C(=CC(=O)O[C@H]3c3ccoc3)[C@@]21C`, the neuronal differentiation score with ReNCell VM [1] (library: Spectrum) is inactive: 0. For the same compound, the “dopaminergic neuron differentiation score” value in the test with ReNCell VM [2] (library: Spectrum) was inactive: 0.

`CC(=O)OCC(=O)[C@H]1CC[C@H]2[C@@H]3CC[C@H]4C[C@H](O)CC[C@]4(C)[C@H]3C(=O)C[C@]12C` [Alfadolone acetate]: the neuronal differentiation score in the test on ReNCell VM [1] (library: Prestwick) is inactive: 0. For the same compound, the “dopaminergic neuron differentiation score” value in the test on ReNCell VM [2] (library: Prestwick) was inactive: 0.

Take `CS(=N)(=O)CC[C@H](N)C(=O)O` (stereo not given in full) [Methionine sulfoximine (L)]: the neuronal differentiation score with ReNCell VM [1] (library: Phytochemical) was inactive: 0. Moreover, the “dopaminergic neuron differentiation score” value with ReNCell VM [2] (library: Phytochemical) was inactive: 0.

With `CC1(C)C(=O)C=C[C@]2(C)[C@H]3CC[C@@]4(C)[C@H](c5ccoc5)OC(=O)[C@H]5O[C@]54[C@]3(C)[C@H](O)C[C@@H]12`, the neuronal differentiation score in the test with ReNCell VM [1] (library: Spectrum) was inactive: -1. The “dopaminergic neuron differentiation score” value in the test on ReNCell VM [2] (library: Spectrum) is inactive: 1.

For the compound `CC(=O)[C@H]1CC[C@H]2[C@@H]3CC[C@H]4C[C@H](O)CC[C@]4(C)[C@H]3CC[C@]12C`, in the test with ReNCell VM [1] (library: Spectrum), the neuronal differentiation score is inactive: 0. The “dopaminergic neuron differentiation score” value in the test with ReNCell VM [2] (library: Spectrum) was inactive: 0.

`COc1cccc(C2(O)CCCCC2CN(C)C)c1` (stereo not given) [Tramadol hydrochloride]: the neuronal differentiation score with ReNCell VM [1] (library: Prestwick) was inactive: 0. The “dopaminergic neuron differentiation score” value in the test with ReNCell VM [2] (library: Prestwick) was inactive: 1.

For the compound `O=c1cccc2n1C[C@@H]1CNC[C@H]2C1` [(-)-Cytisine], the neuronal differentiation score in the test on ReNCell VM [1] (library: Tocriscreen) is inactive: 0. Also, the “dopaminergic neuron differentiation score” value in the test with ReNCell VM [2] (library: Tocriscreen) is inactive: 0.

In the case of `C[C@@]12N[C@@H](Cc3ccccc31)c1ccccc12` [(-)-MK-801 hydrogen maleate], the neuronal differentiation score with ReNCell VM [1] (library: LOPAC) was inactive: 0. Moreover, the “dopaminergic neuron differentiation score” value in the test on ReNCell VM [2] (library: LOPAC) was inactive: 0.

`CC(C)NP(=O)(NC(C)C)OP(=O)(NC(C)C)NC(C)C` [Tetraisopropyl pyrophosphoramide]: the neuronal differentiation score in the test with ReNCell VM [1] (library: LOPAC) was inactive: 0. Also, the “dopaminergic neuron differentiation score” value with ReNCell VM [2] (library: LOPAC) was inactive: 0.
